Molecules are shown by their SMILES. Some of the results follow. These are further read-outs of the screen, such as a control signal, another cell line or another target. No call is given for them. Compounds called inactive in the main read-out are mostly missing here. The note in brackets gives the kind of curve behind each potency; many fits are weak.

Usually AC50 stands for the concentration at which the activity in the assay is half-maximal. Higher therefore signals weaker potency.

The assay in a line: qHTS Assay for Lipid Storage Modulators in Drosophila S3 Cells.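 As to cell number change: cells counted by Cell Tracker Red CMTPX staining in the red channel.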 The note with it: BODIPY lipid droplet fluorescence, 18-24 h; for cell number change: measured here: cell count max response, cells fed with added oleic acid. The essentials: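 Drosophila S3 cells loaded with oleic acid (400 uM, as added) and compounds at several concentrations; lipid droplets imaged by 488-nm laser-scanning cytometry, 500–530 nm intensity and object ratio to cell channel. Percent activity normalized to 20 uM Triacsin C.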

Setting [1] is: measured here: cell number channel AC50, cells fed with added oleic acid.
The mark [2] stands for this setting: measured here: lipid fluorescence (Fed channel) AC50, cells fed with added oleic acid.

`CCSc1oc(-c2ccco2)nc1S(=O)(=O)c1ccc(F)cc1`: the AC50 under setting [1] is 2.06 µM [rising, partial curve].
In the case of `O=C(COc1ccc(Cl)cc1)NCc1n[nH]c(=O)c2ccccc12`, the cell number change was -6.48%. Further, the half-maximal activity concentration (AC50) under setting [2] is 14.6 µM [rising, partial curve].
On to `OCCC1CN(Cc2cccc(O)c2)CCN1CCc1ccccc1` (stereo not given), for which the cell number change was -6.45%. The AC50 under setting [1] was 4.61 µM [falling, single point].
With `O=C(Nc1ccc2c(c1)OCO2)C(c1ccccc1)N1CCCCC1` (stereo not given), the cell number change was 30.3%. Also, the AC50 under setting [1] was 0.00411 µM [rising, full curve, poor fit]. In addition, the AC50 under setting [2] was 6.51 µM [rising, partial curve, poor fit].
Regarding `CN(Cc1ccccc1)C(=O)CC(c1ccccc1)c1cc(Cl)ccc1O` (stereo not given), the cell number change is -19.7%. Further, the AC50 under setting [2] was 0.411 µM [falling, full curve, poor fit].
As for `Cc1ccc(C(=O)CN(CCC(=O)O)S(=O)(=O)c2ccc([N+](=O)[O-])cc2)cc1`, the cell number change worked out at 12.7%. The AC50 under setting [2] was 29.1 µM [rising, single point].
As to `O=C1C2CCc3ccccc3C2N1c1ccccc1` (stereo not given), the cell number change stood at 13.3%. Further, the AC50 under setting [1] was 1.16 µM [falling, single point]. Moreover, the AC50 under setting [2] is 1.16 µM [falling, single point].
For `CC(=O)Nc1ccc(S(=O)(=O)Nc2cc(C)cn(Cc3ccc(C)cc3)c2=O)cc1`, the cell number change stood at 11.7%. Besides, the AC50 under setting [2] is 0.103 µM [falling, full curve, poor fit].
Take `CCC1=Nc2cc(C(=O)NCCCOC(C)C)ccc2Sc2ccccc21`: under setting [2], the AC50 was 23.1 µM [rising, single point].
Take `O=C(NNC(=O)c1ccc(SCC2CCCO2)c([N+](=O)[O-])c1)c1ccc(F)cc1` (stereo not given): the cell number change stood at 4.74%.
Take `Cc1cccc(N(C(=O)CCC(=O)Nc2cc(C)on2)C(C(=O)NC2CCCC2)c2cccnc2)c1` (stereo not given): the cell number change is -37.2%. Moreover, under setting [1], the AC50 was 20.6 µM [falling, single point].
With `Cc1ccc(-c2noc(CCC(=O)N(C)c3ccccc3C)n2)cc1`, the cell number change stood at 43.7%. Moreover, under setting [1], the AC50 is 0.92 µM [rising, partial curve, poor fit]. Further, the AC50 under setting [2] was 5.17 µM [rising, single point].
Turning to `O=C(COC(=O)Cc1ccc(Br)cc1)NCC1CCCCC1`, the cell number change was 14.8%. Moreover, under setting [1], the AC50 was 0.231 µM [falling, single point]. For the same compound, under setting [2], the AC50 is 14.6 µM [rising, partial curve, poor fit].
Turning to `Cc1ccc(CNC(=O)c2cnccn2)cc1`, under setting [2], the AC50 is 10.3 µM [rising, partial curve, poor fit].
Consider `Cc1cc(OCCOc2cccc3cccnc23)c(C)cc1Cl`, for which the cell number change is -9.88%. Moreover, the AC50 under setting [2] is 0.291 µM [rising, full curve, poor fit].
Consider `C=CCNC(=O)CSc1nnc(-c2ccccc2Cl)n1-c1c(C)n(C)n(-c2ccccc2)c1=O`, for which the cell number change is 15.3%. In addition, under setting [2], the AC50 was 0.731 µM [falling, full curve].
Consider `O=C(NCC(=O)N1CCN(S(=O)(=O)c2ccc3c(c2)OCCO3)CC1)c1ccccc1Cl`, for which the cell number change turned out to be 3.88%. The AC50 under setting [2] is 0.103 µM [rising, full curve, poor fit].
Regarding `O=C(COC(=O)c1cnc(Cl)c(Cl)c1)NCc1ccco1`, the cell number change is -55.9%.
With `C[C@H](NC(=O)c1nc[nH]c1C(=O)NCC(=O)OCc1ccccc1)c1ccccc1`, the cell number change is 15%.
As for `CC(C)c1ccc(O)c(NC(=O)c2cccnc2)c1`, the cell number change amounted to 2.52%.
In the case of `CC(=O)Nc1cccc(-c2cnc3ccccc3n2)c1`, the cell number change turned out to be 0.965%. For the same compound, the AC50 under setting [2] was 0.164 µM [rising, full curve, poor fit].
With `O=C(Nn1cnnc1)c1ccc(OC(F)(F)C(F)C(F)(F)F)cc1` (stereo not given), the cell number change was 17.2%. Besides, the AC50 under setting [2] was 29.1 µM [rising, single point].
For `CC(C)(C)OC(=O)NNC(=O)C12CC3CC(CC(C3)C1)C2`, the cell number change is 45%.
On to `CSc1nsc(SCC(=O)Nc2cccc(NC(C)=O)c2)n1`, for which the cell number change amounted to 0.87%. Moreover, the AC50 under setting [2] is 0.731 µM [rising, partial curve, poor fit].
Turning to `C/C(=N\NC(=O)c1ccc(Cn2cc(Br)cn2)o1)c1cccc(NC(=O)C(C)(C)C)c1`, the cell number change was determined as 37.5%. Also, the AC50 under setting [1] was 10.3 µM [rising, partial curve]. The AC50 under setting [2] was 9.2 µM [rising, partial curve].
Consider `NS(=O)(=O)c1ccc(NC(=S)NNC(=O)CCC(=O)Nc2ccccc2Cl)cc1`, for which the cell number change amounted to 23.7%. Also, the AC50 under setting [2] is 1.46 µM [rising, partial curve, poor fit].
For `Cc1ccc(C(=O)Nc2c(C)cc(C)c3cccnc23)cc1`, the cell number change was -4.23%. Moreover, the AC50 under setting [2] is 0.00461 µM [falling, full curve, poor fit].
As to `C=CCn1c(SCC(=O)Nc2cccc3ccccc23)nc(O)c(CC)c1=O`, the half-maximal activity concentration (AC50) under setting [2] was 16.4 µM [rising, partial curve].
`O=C(Cc1c(F)cccc1Cl)Nc1ccc(S(=O)(=O)N2CCOCC2)cc1`: the cell number change came out at 2.85%.
`CC(NC(=O)c1ccc(Br)o1)C1CC2CCC1C2` (stereo not given): the cell number change is -20.7%.
For `CC(=O)Nc1ccc(C(=O)c2ccccc2)cc1`, the cell number change was -8.68%. Moreover, the AC50 under setting [2] is 6.51 µM [rising, single point].
Take `CC(=O)NC1CCN(C(=O)N2CCCC2)CC1`: the cell number change is 11.6%.
As for `Cc1ccnc(SCC(=O)Nc2oc(-c3ccccc3)c(-c3ccccc3)c2C#N)n1`, the AC50 under setting [1] is 2.06 µM [rising, partial curve].
With `CC(Sc1ncccn1)C(=O)Nc1ccc2c(c1)OCCO2` (stereo not given), the cell number change was -10.4%. Besides, the AC50 under setting [1] was 0.184 µM [falling, partial curve].
Take `CN(C)C1=NCCN1CCc1ccc(F)cc1`: the cell number change was -14.6%. For the same compound, the AC50 under setting [2] is 20.6 µM [rising, single point].
Turning to `CC(C)COc1ccc(C(=O)OCCN2CCOCC2)c(O)c1`, the cell number change is -27.6%. Moreover, the AC50 under setting [1] was 3.26 µM [falling, full curve, poor fit]. The AC50 under setting [2] was 29.1 µM [falling, single point].
As to `COCC(C)n1c(C)cc(C(=O)COC(=O)c2oc3ccccc3c2C)c1C` (stereo not given), the cell number change was -21%. Besides, the AC50 under setting [2] was 29.1 µM [falling, single point].
Take `COc1c(S(=O)(=O)N2CCN(C)CC2)ccc(Cl)c1Cl`: the cell number change came out at 16.9%.
In the case of `COc1ccc(CCNC(=O)c2oc3ccc(S(=O)(=O)N4CCOCC4)cc3c2C)cc1OC`, the cell number change was -30%. The AC50 under setting [2] was 23.1 µM [falling, single point].
On to `CCOc1cc(CNCc2ccccc2)ccc1OCC(=O)NC1CCCCC1`, for which the cell number change is -8.67%.
`NC1=NC[C@H](CC2CCCCC2)N1CCc1cc(C(F)(F)F)cc(C(F)(F)F)c1`: the cell number change is -73%. Moreover, the AC50 under setting [1] was 29.1 µM [falling, single point]. Moreover, under setting [2], the AC50 is 29.1 µM [falling, single point].
For the compound `CCOC(=O)/C(=C\c1ccc(Cl)cc1)c1nc2sc(C)c(C)c2c(=O)[nH]1`, the cell number change was -10.5%. For the same compound, the AC50 under setting [2] was 20.6 µM [falling, single point].
In the case of `COc1ccc2nc(NC(=O)CSc3nnnn3C3CCCCC3)sc2c1`, the cell number change was determined as 57.2%. Moreover, the concentration at half-maximal activity (AC50) under setting [1] was 20.6 µM [rising, partial curve, poor fit]. Besides, the concentration at half-maximal activity (AC50) under setting [2] is 0.92 µM [rising, full curve].
Regarding `CS(=O)(=O)c1ccccc1C(=O)Nc1ccc(-c2nc3ccccc3o2)cc1`, the cell number change was -13.1%.
Regarding `O=C(NCc1cccc(Cl)c1)c1cccc(OC2CCN(C(=O)C3CC3)CC2)c1`, the cell number change was -25.2%. Moreover, the AC50 under setting [2] is 2.31 µM [falling, partial curve].
As for `O=C(CNC(=O)c1ccc(Cl)cc1Cl)OCN1C(=O)c2ccccc2C1=O`, the cell number change stood at 5.49%. For the same compound, under setting [2], the AC50 was 6.51 µM [falling, single point].
Turning to `COc1cccc(CNS(=O)(=O)c2ccc3c(c2)NC(=O)CS3)c1`, the cell number change was -26.4%. For the same compound, the AC50 under setting [2] is 20.6 µM [falling, single point].
For `N#Cc1ccccc1Sc1ccccc1C(=O)OCC(=O)NC1CCCCC1`, the cell number change is 37.4%. Under setting [1], the AC50 was 16.4 µM [rising, partial curve]. In addition, the AC50 under setting [2] was 23.1 µM [falling, single point].
In the case of `C=CCc1ccc(OCCCCOc2ccc(C(=O)O)cc2)c(OC)c1`, the cell number change is -44.6%. Further, the AC50 under setting [1] was 25.9 µM [falling, single point]. Moreover, the AC50 under setting [2] is 29.1 µM [falling, single point].
As to `COc1ccc(CCN2C(=NC(=O)C(C)C)SC3CS(=O)(=O)CC32)cc1OC` (stereo not given), the cell number change came out at 31.2%.
The same measure, in the same setting: the value for `Cc1ccccc1CN1[C@@H]2c3ccccc3C[C@@H]2OCCS1(=O)=O` was 16.5%.
As to `COc1ccc(C2C(C(=O)c3cccs3)=C(O)C(=O)N2c2cccc(C)n2)cc1` (stereo not given), the cell number change was -57.4%. The AC50 under setting [1] is 8.2 µM [falling, partial curve].
Regarding `O=C(CNC(=O)c1ccc(Cl)cc1Cl)NCc1ccccn1`, the cell number change was -17.2%.
For the compound `C[C@@]12CC(=O)NC1N(C(=O)c1ccccc1)C(c1ccccc1OC(=O)c1ccccc1)C2` (stereo not given in full), the cell number change stood at 14.8%. Moreover, the AC50 under setting [2] is 29.1 µM [rising, single point].
Take `O=S(=O)(c1ccc(NCCOCCO)nc1)N1CCCCC1`: the cell number change is -32.3%. Under setting [1], the AC50 is 18.4 µM [falling, single point]. Also, the AC50 under setting [2] was 20.6 µM [falling, single point].
On to `CCOC(=O)N1CCN(c2cc(NCCO)c([N+](=O)[O-])c3nonc23)CC1`, for which the cell number change is 17.6%.
For the compound `O=C(NC(NC(=S)Nc1ccc(Cl)cc1)C(Cl)(Cl)Cl)c1ccco1` (stereo not given), the cell number change is -41.1%. Under setting [1], the concentration at half-maximal activity (AC50) is 32.6 µM [falling, single point]. For the same compound, under setting [2], the AC50 was 29.1 µM [falling, single point].
As for `Cc1cc(C(=O)CN2C(=O)c3ccccc3S2(=O)=O)c(C)n1CC1CCCO1` (stereo not given), the cell number change amounted to 35.1%. Also, the AC50 under setting [1] was 7.31 µM [rising, partial curve].
Turning to `C/C(=N\NC(=O)c1nnn(-c2nonc2N)c1-c1ccccc1)c1cccnc1`, the cell number change was -1.7%. Also, the AC50 under setting [2] was 3.26 µM [rising, single point].
In the case of `COc1ccccc1N1CCN(C(=O)c2ccc(-c3ccc(Cl)cc3)o2)CC1`, the cell number change is -14.6%. In addition, the AC50 under setting [1] is 0.082 µM [rising, full curve, poor fit].
On to `COc1ccc(O)c(/C=N/Nc2nc(Nc3ccccc3)nc(-n3nc(C)cc3C)n2)c1`, for which the cell number change was -39.7%. Also, the AC50 under setting [1] was 9.2 µM [falling, partial curve]. In addition, the AC50 under setting [2] is 20.6 µM [falling, partial curve].

The values above are taken from PubChem BioAssay AID2685 (National Center for Advancing Translational Sciences (NCATS), 2010).
